Assay results taken from paper PMC12794514.

Amino acid sequences for entries named in this document (tags omitted). A change or cut given only in a name is not applied to a line headed by its entry.
UniProt Q8WTX9: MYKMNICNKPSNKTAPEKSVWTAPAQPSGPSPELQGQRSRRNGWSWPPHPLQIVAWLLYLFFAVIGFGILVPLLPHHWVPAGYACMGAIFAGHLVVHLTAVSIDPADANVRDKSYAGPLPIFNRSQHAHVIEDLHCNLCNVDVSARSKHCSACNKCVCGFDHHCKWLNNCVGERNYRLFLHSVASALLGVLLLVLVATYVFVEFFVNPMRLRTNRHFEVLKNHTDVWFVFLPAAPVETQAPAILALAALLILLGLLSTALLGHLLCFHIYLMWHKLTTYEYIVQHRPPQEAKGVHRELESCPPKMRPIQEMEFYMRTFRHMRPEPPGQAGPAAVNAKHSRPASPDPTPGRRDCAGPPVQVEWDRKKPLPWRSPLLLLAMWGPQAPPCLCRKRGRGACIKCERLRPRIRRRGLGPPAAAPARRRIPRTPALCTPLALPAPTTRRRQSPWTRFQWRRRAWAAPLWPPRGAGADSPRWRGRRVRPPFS
UniProt Q9Y397: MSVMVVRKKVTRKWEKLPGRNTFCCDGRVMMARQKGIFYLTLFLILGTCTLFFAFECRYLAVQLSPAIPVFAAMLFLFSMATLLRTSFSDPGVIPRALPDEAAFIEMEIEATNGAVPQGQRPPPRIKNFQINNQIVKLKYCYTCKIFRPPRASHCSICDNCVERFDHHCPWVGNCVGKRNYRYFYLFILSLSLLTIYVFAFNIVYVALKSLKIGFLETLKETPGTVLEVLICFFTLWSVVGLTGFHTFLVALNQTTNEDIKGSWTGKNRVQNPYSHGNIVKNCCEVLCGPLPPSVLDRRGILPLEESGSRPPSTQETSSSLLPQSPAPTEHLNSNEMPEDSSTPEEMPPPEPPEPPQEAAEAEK

How the values were obtained:
[1] = molecular target: T1, MTDH as used in the reciprocal co-immunoprecipitations of Supplemental Fig. S4G-J (human) (UniProt Q86UE4); assay: co-IP; Supplemental Fig. S4H, J: reciprocal, MTDH immunoprecipitated, ZDHHC or ZDHHS detected; NETN buffer, anti-Flag affinity gel or anti-HA magnetic beads, 4°C overnight
T1 sequence: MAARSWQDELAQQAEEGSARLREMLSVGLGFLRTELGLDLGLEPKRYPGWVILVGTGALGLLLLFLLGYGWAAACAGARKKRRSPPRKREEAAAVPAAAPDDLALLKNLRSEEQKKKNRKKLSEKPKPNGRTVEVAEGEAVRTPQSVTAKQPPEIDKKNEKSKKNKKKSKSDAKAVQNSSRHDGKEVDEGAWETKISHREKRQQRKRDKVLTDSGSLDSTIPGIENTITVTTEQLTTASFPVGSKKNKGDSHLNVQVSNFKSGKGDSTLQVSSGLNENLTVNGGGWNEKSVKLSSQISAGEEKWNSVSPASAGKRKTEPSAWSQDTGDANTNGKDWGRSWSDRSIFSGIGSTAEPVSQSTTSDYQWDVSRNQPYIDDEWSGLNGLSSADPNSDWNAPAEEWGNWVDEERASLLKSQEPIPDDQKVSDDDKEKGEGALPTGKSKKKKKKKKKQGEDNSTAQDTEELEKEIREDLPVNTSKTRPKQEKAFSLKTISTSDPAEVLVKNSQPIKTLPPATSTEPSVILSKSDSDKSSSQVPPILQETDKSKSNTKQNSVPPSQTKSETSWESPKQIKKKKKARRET

[2] = molecular target: SF-tagged ZDHHS1 (catalytically inactive mutant of ZDHHC1) (UniProt Q8WTX9); assay: co-IP; Supplemental Fig. S4G, I: ZDHHC or ZDHHS immunoprecipitated, MTDH detected; NETN buffer, anti-Flag affinity gel or anti-HA magnetic beads, 4°C overnight
[3] = molecular target: SF-tagged ZDHHS9 (catalytically inactive mutant of ZDHHC9) (UniProt Q9Y397); assay: as above

With “SF-tagged ZDHHS1 (catalytically inactive mutant of ZDHHC1) (from UniProt Q8WTX9) (enzyme)” the binding [1] was “binds”.

B1: MTDH as used in the reciprocal co-immunoprecipitations of Supplemental Fig. S4G-J (protein, UniProt Q86UE4 1-582)
chain: MAARSWQDELAQQAEEGSARLREMLSVGLGFLRTELGLDLGLEPKRYPGWVILVGTGALGLLLLFLLGYGWAAACAGARKKRRSPPRKREEAAAVPAAAPDDLALLKNLRSEEQKKKNRKKLSEKPKPNGRTVEVAEGEAVRTPQSVTAKQPPEIDKKNEKSKKNKKKSKSDAKAVQNSSRHDGKEVDEGAWETKISHREKRQQRKRDKVLTDSGSLDSTIPGIENTITVTTEQLTTASFPVGSKKNKGDSHLNVQVSNFKSGKGDSTLQVSSGLNENLTVNGGGWNEKSVKLSSQISAGEEKWNSVSPASAGKRKTEPSAWSQDTGDANTNGKDWGRSWSDRSIFSGIGSTAEPVSQSTTSDYQWDVSRNQPYIDDEWSGLNGLSSADPNSDWNAPAEEWGNWVDEERASLLKSQEPIPDDQKVSDDDKEKGEGALPTGKSKKKKKKKKKQGEDNSTAQDTEELEKEIREDLPVNTSKTRPKQEKAFSLKTISTSDPAEVLVKNSQPIKTLPPATSTEPSVILSKSDSDKSSSQVPPILQETDKSKSNTKQNSVPPSQTKSETSWESPKQIKKKKKARRET
With B1 the binding [2] was “binds” and the binding [3] was “binds”.

Results are given in words; binding and its absence hold for the method and conditions named. Binding seen in cells or lysates may run through a third protein. A result given as binding can be weak or reduced; the word gives no strength.
